Measurements from article PMC11079001.
Where a chain is given by its changes, count along the chain named. Results are given in words; binding and its absence hold for the method and conditions named. In cells and extracts the contact can be indirect. Some binding calls cover weakened binding; strength is not graded here. Sequences can lack the tags named with a protein.

Chains of the proteins cited; added tags and fusions are not shown.
UniProt P52286: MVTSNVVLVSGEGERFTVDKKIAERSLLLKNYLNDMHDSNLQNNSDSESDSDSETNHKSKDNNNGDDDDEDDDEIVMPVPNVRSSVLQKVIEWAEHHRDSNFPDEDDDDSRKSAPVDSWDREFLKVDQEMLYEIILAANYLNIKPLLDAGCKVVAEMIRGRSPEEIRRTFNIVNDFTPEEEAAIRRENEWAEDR

What was measured:
Assay in all cases: co-IP; 12xMyc-Met30 variants immunoprecipitated on MYC-trap beads from 1 mg native yeast whole cell lysate (Triton X-100 buffer: 50 mM HEPES pH 7.5, 0.2% Triton X-100, 200 mM NaCl), overnight at 4 °C; co-precipitated Skp1 by western blot; cells untreated or treated with 100 µM CdCl2 (time courses); also H2O2 or zinc pre-treatment
[1] = target: T1, 12xMyc-Met30 C201S (S. cerevisiae) (UniProt P39014)
T1 sequence: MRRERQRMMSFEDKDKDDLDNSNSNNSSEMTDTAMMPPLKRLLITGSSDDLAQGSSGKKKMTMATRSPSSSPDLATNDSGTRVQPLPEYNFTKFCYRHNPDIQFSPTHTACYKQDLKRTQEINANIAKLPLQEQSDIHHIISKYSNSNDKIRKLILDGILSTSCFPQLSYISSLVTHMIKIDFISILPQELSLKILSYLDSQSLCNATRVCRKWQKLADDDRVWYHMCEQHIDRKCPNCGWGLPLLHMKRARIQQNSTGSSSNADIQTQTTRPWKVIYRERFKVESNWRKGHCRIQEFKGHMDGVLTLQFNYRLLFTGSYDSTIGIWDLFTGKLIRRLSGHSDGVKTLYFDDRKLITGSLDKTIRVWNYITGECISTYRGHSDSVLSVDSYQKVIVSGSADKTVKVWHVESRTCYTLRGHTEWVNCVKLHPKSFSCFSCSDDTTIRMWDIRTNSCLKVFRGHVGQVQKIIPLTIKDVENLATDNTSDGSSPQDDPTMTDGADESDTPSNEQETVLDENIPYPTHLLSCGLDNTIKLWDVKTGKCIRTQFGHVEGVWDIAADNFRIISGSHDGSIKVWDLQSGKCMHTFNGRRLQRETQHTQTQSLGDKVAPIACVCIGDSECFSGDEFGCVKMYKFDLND

[2] = target: T2, 12xMyc-Met30 C205S (S. cerevisiae) (UniProt P39014)
T2 sequence: T1 sequence with S201C, C205S

[3] = target: T3, 12xMyc-Met30 C211S (S. cerevisiae) (UniProt P39014)
T3 sequence: T1 sequence with S201C, C211S

Measured: binding

Skp1 (from UniProt P52286 1-194)
binds: all assays above
